Experimental data from patent US8278278B2, “Cell proliferation reducing cancer specific PCNA peptides” (Indiana University Research and Technology Corporation, priority 2008, dated 2012).
“Also recorded” adds a separate entry of the source. Not every detail of the peptide structures is certain; ends, links or a residue may be inferred. For some of these results: The name of at least one read-out is uncertain. Residues, ends and D or L forms follow the SMILES beside them.

Experiments:
Assay type in all cases: cell-based
HCC1937 cells = assay: Clonogenic survival assay, HCC1937 cells; settings: 100 μM caPeptide for 48 hours, 13 days growth
[1] = system: HCC1937+wild-type BRCA1 cells; assay: Clonogenic survival assay, HCC1937+wild-type BRCA1 cells; settings: 100 μM caPeptide for 48 hours, 13 days growth
[2] = system: HCC1937 cells lacking BRCA1; assay: MTT growth inhibition assay, HCC1937 cells lacking BRCA1; settings: for effect of the peptide on cisplatin IC50 / dose needed for growth inhibition: 60 μM peptide added simultaneously with cisplatin, HCC1937 with and without BRCA1, more pronounced without
Method: MTT [3-(4,5-dimethylthiazol-2-yl)-2,5-diphenyltetrazolium bromide] assays were conducted with caPeptides at a variety of time points both alone and in combination with a DNA damaging agent e.g., cisplatin in HCC1937 and HCC1937+wild-type BRCA1 cells. The MTT assay is based on the ability of a mitochondrial dehydrogenase enzyme from viable cells to cleave the tetrazolium rings of the pale yellow MTT dye and form dark blue formazan crystals. These formazan crystals are largely impermeable to cell membranes and thus accumulate within healthy cells. Solubilization of the cells by the addition of a detergent results in the liberation and solubilization of the crystals. The number of proliferating cells is directly proportional to the level of formazan product created. The color can then be quantified using a simple colorimetric assay. The results are read on a multiwall scanning spectrophotometer (ELISA reader). […]
MTT assays: The efficacy of caPeptides were tested using the MTT assays: HCC1937 and HCC137+wildtype BRCA1 cells were grown in DMEM 1× (supplemented with 10% fetal bovine serum and 5% penicillin/streptomycin) and were plated at a densities of 5.5×10^3 or 7×10^3, respectively, in 96 well plates (100 μL total volume per well) and allowed to attach overnight in a 37° C. incubator (5% CO2). […] Plates were rocked at room temperature for five minutes to dissolve crystals and transferred to an ELISA plate reader. Absorbance was measured at 550 nm. The extent to which caPeptides inhibited cell proliferation was calculated as a percentage of the absorbance in each well containing caPeptide relative to wells containing no caPeptide (negative control) for both HCC1937 and HCC1937+wild-type BRCA1 cells. […]

[3] = system: U937 monocytic lymphoma cells; assay: Cytotoxicity/apoptosis of R9-linked caPCNA peptides in U937 cells by flow cytometry
Method: First, it was tested whether or not the R9 sequence alone had any cytotoxic effect in U937 cells. The U937 cells were treated with up to 100 μM of the R9 sequence for 24 hours.
Once it was established that the R9 sequence promoted cellular uptake of the peptide, increasing amounts of R9-caPep were added to U937 cells to determine if the peptide's uptake would have any cytotoxic effect.
To verify that the cytotoxicity of the R9-caPep was due to the PCNA peptide sequence itself, a scrambled peptide using the same eight amino acids, R9-Scrambled, was prepared (Table 3).
The cancer associated epitope of PCNA is also part of the flexible IDCL region of PCNA. This region of PCNA is considered to have a disordered structure. Disordered regions in proteins are usually associated with protein-to-protein interaction sites. […] To determine which amino acids in the R9-caPep sequence are necessary for binding of the peptide to these proteins, peptide constructs were generated that mutated each amino acid individually to an alanine (Table 3). Each alanine mutant peptide of caPCNA was used to treat U937 cells for 24 hours. An amino acid that is important to protein binding would presumably show decreased cell cytotoxicity when it is substituted with an alanine. […]

| SMILES | colony formation (HCC1937 cells) | colony formation [1] | effect of the peptide on cisplatin IC50 / dose needed for growth inhibition [2] | sensitivity of HCC1937 cells compared with HCC1937+wild-type BRCA1 cells ([2]; 24, 48 and 72 hour treatment) | apoptotic cells ([3]; 50 uM of R9-caPep) [%] | apoptosis ([3]; R9-caPep concentrations above 20 μM) |
| --- | --- | --- | --- | --- | --- | --- |
| CC[C@H](C)[C@H](NC(=O)CNC(=O)[C@@H](N)CC(C)C)C(=O)N1CCC[C@H]1C(=O)N[C@@H](CCC(=O)O)C(=O)N[C@@H](CCC(N)=O)C(=O)N[C@@H](CCC(=O)O)C(=O)N[C@@H](Cc1ccc(O)cc1)C(=O)O [caPeptide] (H-LGIPEQEY-OH) | inhibits colony formation | inhibits colony formation | lowers the IC50 of cisplatin | more sensitive | – | – |
| CC[C@H](C)[C@H](NC(=O)CNC(=O)[C@H](CC(C)C)NC(=O)[C@H](CS)NC(=O)[C@H](CS)NC(=O)[C@@H](CCCNC(=N)N)NC(=O)[C@@H](CCCNC(=N)N)NC(=O)[C@@H](CCCNC(=N)N)NC(=O)[C@@H](CCCNC(=N)N)NC(=O)[C@@H](CCCNC(=N)N)NC(=O)[C@@H](CCCNC(=N)N)NC(=O)[C@@H](CCCNC(=N)N)NC(=O)[C@@H](CCCNC(=N)N)NC(=O)[C@H](N)CCCNC(=N)N)C(=O)N1CCC[C@H]1C(=O)N[C@@H](CCC(=O)O)C(=O)N[C@@H](CCC(N)=O)C(=O)N[C@@H](CCC(=O)O)C(=O)N[C@@H](Cc1ccc(O)cc1)C(=O)O [R9-caPep] | – | – | lowers cisplatin dose needed for growth inhibition | – | ~93 | marked increase in apoptotic cells; also recorded: marked increase in apoptosis |
